From doi:10.1101/2023.09.13.557663
No constants are given. Whether binding was seen depends on the method and setting. Binding seen in cells or lysates may run through a third protein. Here binding means that the protein was enriched with, or labelled near, the bait; the list need not be complete.

Molecular target: EGFR-flag-TurboID (EGFR-TurboID fusion construct, HeLa clone T1), P00533
Experiment: proximity labelling
Conditions: remark: other sources report otherwise

B1: clathrin interactor 1 (CLINT1), Q14677 1-625 (protein)
chain: MLNMWKVRELVDKATNVVMNYSEIESKVREATNDDPWGPSGQLMGEIAKATFMYEQFPELMNMLWSRMLKDNKKNWRRVYKSLLLLAYLIRNGSERVVTSAREHIYDLRSLENYHFVDEHGKDQGINIRQKVKELVEFAQDDDRLREERKKAKKNKDKYVGVSSDSVGGFRYSERYDPEPKSKWDEEWDKNKSAFPFSDKLGELSDKIGSTIDDTISKFRRKDREDSPERCSDSDEEKKARRGRSPKGEFKDEEETVTTKHIHITQATETTTTRHKRTANPSKTIDLGAAAHYTGDKASPDQNASTHTPQSSVKTSVPSSKSSGDLVDLFDGTSQSTGGSADLFGGFADFGSAAASGSFPSQVTATSGNGDFGDWSAFNQAPSGPVASSGEFFGSASQPAVELVSGSQSALGPPPAASNSSDLFDLMGSSQATMTSSQSMNFSMMSTNTVGLGLPMSRSQNTDMVQKSVSKTLPSTWSDPSVNISLDNLLPGMQPSKPQQPSLNTMIQQQNMQQPMNVMTQSFGAVNLSSPSNMLPVRPQTNALIGGPMPMSMPNVMTGTMGMAPLGNTPMMNQSMMGMNMNIGMSAAGMGLTGTMGMGMPNIAMTSGTVQPKQDAFANFANFSK
- binding: binds
